Reference: article doi:10.1101/2021.07.12.452044
No constants are given. Whether binding was seen depends on the method and setting. Binding seen in cells or lysates may run through a third protein. Here binding means that the protein was enriched with, or labelled near, the bait; the list need not be complete. Sequences can lack the tags named with a protein.

Sequences of proteins named here, by UniProt entry; tags and fusion partners are left off.
UniProt P98175: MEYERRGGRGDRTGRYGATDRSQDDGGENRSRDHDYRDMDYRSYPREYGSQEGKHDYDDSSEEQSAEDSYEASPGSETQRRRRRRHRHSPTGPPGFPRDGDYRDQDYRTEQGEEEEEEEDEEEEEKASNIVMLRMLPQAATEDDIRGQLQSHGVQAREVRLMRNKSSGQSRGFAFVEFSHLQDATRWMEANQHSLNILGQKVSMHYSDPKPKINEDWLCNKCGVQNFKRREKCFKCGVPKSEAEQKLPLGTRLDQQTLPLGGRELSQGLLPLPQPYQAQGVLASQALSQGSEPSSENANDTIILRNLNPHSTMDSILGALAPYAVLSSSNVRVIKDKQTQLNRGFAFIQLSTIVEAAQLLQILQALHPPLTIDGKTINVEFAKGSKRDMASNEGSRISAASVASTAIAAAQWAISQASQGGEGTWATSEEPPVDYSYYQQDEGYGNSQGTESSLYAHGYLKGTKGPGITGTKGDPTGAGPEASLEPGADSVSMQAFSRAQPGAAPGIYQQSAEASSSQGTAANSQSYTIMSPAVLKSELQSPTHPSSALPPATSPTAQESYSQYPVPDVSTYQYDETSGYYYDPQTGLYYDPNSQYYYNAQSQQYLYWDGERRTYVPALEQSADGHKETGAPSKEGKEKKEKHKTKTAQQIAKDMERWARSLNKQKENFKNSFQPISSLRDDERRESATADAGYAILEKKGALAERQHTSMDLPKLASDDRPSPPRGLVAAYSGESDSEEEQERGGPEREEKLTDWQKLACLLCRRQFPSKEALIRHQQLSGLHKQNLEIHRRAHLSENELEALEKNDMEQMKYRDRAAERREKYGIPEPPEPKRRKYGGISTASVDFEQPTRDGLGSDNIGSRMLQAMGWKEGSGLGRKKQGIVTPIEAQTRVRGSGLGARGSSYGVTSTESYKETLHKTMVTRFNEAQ
UniProt O15042: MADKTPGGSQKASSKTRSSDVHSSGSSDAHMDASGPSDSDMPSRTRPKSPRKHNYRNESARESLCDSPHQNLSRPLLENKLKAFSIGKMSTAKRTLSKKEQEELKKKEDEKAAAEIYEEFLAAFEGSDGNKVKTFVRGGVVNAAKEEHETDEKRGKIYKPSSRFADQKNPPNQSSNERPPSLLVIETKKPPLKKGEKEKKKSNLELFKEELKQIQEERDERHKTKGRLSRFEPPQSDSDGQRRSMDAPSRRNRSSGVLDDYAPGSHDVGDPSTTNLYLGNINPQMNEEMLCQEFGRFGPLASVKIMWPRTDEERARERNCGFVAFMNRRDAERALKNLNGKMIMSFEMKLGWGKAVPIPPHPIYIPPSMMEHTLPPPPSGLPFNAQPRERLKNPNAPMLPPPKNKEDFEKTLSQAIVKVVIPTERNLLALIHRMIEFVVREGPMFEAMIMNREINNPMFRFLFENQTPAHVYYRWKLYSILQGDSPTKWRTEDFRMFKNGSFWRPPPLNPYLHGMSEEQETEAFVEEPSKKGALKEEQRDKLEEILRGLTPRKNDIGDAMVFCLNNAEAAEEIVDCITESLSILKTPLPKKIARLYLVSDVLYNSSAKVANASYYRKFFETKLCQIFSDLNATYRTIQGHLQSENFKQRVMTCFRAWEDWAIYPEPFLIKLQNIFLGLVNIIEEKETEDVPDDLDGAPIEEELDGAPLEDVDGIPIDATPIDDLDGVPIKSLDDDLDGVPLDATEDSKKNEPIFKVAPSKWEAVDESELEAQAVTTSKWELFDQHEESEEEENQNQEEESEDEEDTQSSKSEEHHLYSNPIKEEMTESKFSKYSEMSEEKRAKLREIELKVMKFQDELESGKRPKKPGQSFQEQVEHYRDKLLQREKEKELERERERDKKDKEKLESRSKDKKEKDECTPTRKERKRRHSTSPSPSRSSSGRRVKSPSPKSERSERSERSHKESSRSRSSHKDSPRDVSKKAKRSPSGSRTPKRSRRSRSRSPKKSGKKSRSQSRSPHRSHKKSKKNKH

T1: wild-type RBM20 C-terminally fused to BirA* (BioID) and FLAG tag (human) (UniProt Q5T481)
T1 sequence: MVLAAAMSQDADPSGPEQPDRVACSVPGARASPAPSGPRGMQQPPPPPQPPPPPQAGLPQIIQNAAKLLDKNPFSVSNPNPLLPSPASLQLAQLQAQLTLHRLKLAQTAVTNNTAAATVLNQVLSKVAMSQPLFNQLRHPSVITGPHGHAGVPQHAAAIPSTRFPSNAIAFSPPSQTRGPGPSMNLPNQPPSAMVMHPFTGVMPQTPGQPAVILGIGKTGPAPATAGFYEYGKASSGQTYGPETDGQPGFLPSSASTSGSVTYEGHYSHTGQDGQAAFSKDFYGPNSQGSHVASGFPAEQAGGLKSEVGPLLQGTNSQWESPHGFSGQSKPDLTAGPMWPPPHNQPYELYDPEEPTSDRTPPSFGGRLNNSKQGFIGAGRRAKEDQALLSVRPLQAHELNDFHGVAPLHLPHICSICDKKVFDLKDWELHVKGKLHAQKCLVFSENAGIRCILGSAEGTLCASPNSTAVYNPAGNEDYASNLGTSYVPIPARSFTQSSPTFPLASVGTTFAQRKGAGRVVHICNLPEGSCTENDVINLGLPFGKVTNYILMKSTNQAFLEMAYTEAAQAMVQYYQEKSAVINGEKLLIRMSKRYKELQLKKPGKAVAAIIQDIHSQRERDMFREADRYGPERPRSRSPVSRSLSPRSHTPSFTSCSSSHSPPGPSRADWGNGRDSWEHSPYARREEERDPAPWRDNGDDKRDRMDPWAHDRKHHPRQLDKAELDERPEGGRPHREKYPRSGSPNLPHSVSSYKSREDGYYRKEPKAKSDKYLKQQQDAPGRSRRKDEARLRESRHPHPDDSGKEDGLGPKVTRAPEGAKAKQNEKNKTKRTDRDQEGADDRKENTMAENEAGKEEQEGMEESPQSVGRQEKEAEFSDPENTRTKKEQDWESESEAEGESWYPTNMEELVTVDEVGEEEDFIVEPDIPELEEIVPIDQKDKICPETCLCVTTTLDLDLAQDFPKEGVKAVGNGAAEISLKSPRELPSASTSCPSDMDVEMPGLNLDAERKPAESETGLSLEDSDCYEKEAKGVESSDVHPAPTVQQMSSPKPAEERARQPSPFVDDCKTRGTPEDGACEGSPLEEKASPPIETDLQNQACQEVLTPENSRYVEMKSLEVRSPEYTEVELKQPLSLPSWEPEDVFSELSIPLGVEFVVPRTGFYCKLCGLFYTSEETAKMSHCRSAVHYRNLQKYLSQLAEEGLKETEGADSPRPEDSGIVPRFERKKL

B1: SF1 (protein, UniProt Q15637 1-639)
chain: MATGANATPLDFPSKKRKRSRWNQDTMEQKTVIPGMPTVIPPGLTREQERAYIVQLQIEDLTRKLRTGDLGIPPNPEDRSPSPEPIYNSEGKRLNTREFRTRKKLEEERHNLITEMVALNPDFKPPADYKPPATRVSDKVMIPQDEYPEINFVGLLIGPRGNTLKNIEKECNAKIMIRGKGSVKEGKVGRKDGQMLPGEDEPLHALVTANTMENVKKAVEQIRNILKQGIETPEDQNDLRKMQLRELARLNGTLREDDNRILRPWQSSETRSITNTTVCTKCGGAGHIASDCKFQRPGDPQSAQDKARMDKEYLSLMAELGEAPVPASVGSTSGPATTPLASAPRPAAPANNPPPPSLMSTTQSRPPWMNSGPSESRPYHGMHGGGPGGPGGGPHSFPHPLPSLTGGHGGHPMQHNPNGPPPPWMQPPPPPMNQGPHPPGHHGPPPMDQYLGSTPVGSGVYRLHQGKGMMPPPPMGMMPPPPPPPSGQPPPPPSGPLPPWQQQQQQPPPPPPPSSSMASSTPLPWQQNTTTTTTSAGTGSIPPWQQQQAAAAASPGAPQMQGNPTMVPLPPGVQPPLPPGAPPPPPPPPPGSAGMMYAPPPPPPPPMDPSNFVTMMGMGVAGMPPFGMPPAPPPPPPQN
B2: DDX46 (protein, UniProt Q7L014 1-1031)
chain: MGRESRHYRKRSASRGRSGSRSRSRSPSDKRSKRGDDRRSRSRDRDRRRERSRSRDKRRSRSRDRKRLRRSRSRERDRSRERRRSRSRDRRRSRSRSRGRRSRSSSPGNKSKKTENRSRSKEKTDGGESSKEKKKDKDDKEDEKEKDAGNFDQNKLEEEMRKRKERVEKWREEQRKKAMENIGELKKEIEEMKQGKKWSLEDDDDDEDDPAEAEKEGNEMEGEELDPLDAYMEEVKEEVKKFNMRSVKGGGGNEKKSGPTVTKVVTVVTTKKAVVDSDKKKGELMENDQDAMEYSSEEEEVDLQTALTGYQTKQRKLLEPVDHGKIEYEPFRKNFYVEVPELAKMSQEEVNVFRLEMEGITVKGKGCPKPIKSWVQCGISMKILNSLKKHGYEKPTPIQTQAIPAIMSGRDLIGIAKTGSGKTIAFLLPMFRHIMDQRSLEEGEGPIAVIMTPTRELALQITKECKKFSKTLGLRVVCVYGGTGISEQIAELKRGAEIIVCTPGRMIDMLAANSGRVTNLRRVTYVVLDEADRMFDMGFEPQVMRIVDNVRPDRQTVMFSATFPRAMEALARRILSKPIEVQVGGRSVVCSDVEQQVIVIEEEKKFLKLLELLGHYQESGSVIIFVDKQEHADGLLKDLMRASYPCMSLHGGIDQYDRDSIINDFKNGTCKLLVATSVAARGLDVKHLILVVNYSCPNHYEDYVHRAGRTGRAGNKGYAYTFITEDQARYAGDIIKALELSGTAVPPDLEKLWSDFKDQQKAEGKIIKKSSGFSGKGFKFDETEQALANERKKLQKAALGLQDSDDEDAAVDIDEQIESMFNSKKRVKDMAAPGTSSVPAPTAGNAEKLEIAKRLALRINAQKNLGIESQDVMQQATNAILRGGTILAPTVSAKTIAEQLAEKINAKLNYVPLEKQEEERQDGGQNESFKRYEEELEINDFPQTARWKVTSKEALQRISEYSEAAITIRGTYFPPGKEPKEGERKIYLAIESANELAVQKAKAEITRLIKEELIRLQNSYQPTNKGRYKVL
B3: RBM17 (protein, UniProt Q96I25 1-401)
chain: MSLYDDLGVETSDSKTEGWSKNFKLLQSQLQVKKAALTQAKSQRTKQSTVLAPVIDLKRGGSSDDRQIVDTPPHVAAGLKDPVPSGFSAGEVLIPLADEYDPMFPNDYEKVVKRQREERQRQRELERQKEIEEREKRRKDRHEASGFARRPDPDSDEDEDYERERRKRSMGGAAIAPPTSLVEKDKELPRDFPYEEDSRPRSQSSKAAIPPPVYEEQDRPRSPTGPSNSFLANMGGTVAHKIMQKYGFREGQGLGKHEQGLSTALSVEKTSKRGGKIIVGDATEKDASKKSDSNPLTEILKCPTKVVLLRNMVGAGEVDEDLEVETKEECEKYGKVGKCVIFEIPGAPDDEAVRIFLEFERVESAIKAVVDLNGRYFGGRVVKACFYNLDKFRVLDLAEQV

Target: T1, wild-type RBM20 C-terminally fused to BirA* (BioID) and FLAG tag (human)
Test: proximity labelling

binding, binds:
RBM10 (from UniProt P98175 1-930), U2SURP (from UniProt O15042 1-1029), B1, B2, B3
